Test results as given in article PMC10775985.
Results are given in words; binding and its absence hold for the method and conditions named. Sequences can lack the tags named with a protein.

Target: ScCdc31-6His (Saccharomyces cerevisiae centrin Cdc31) (Saccharomyces cerevisiae) (UniProt P06704)
Assay: light microscopy of droplets in purified protein solutions; self-assembly into droplets; concentrated recombinant centrin (100-200 μM), 2 mM CaCl2 added, then 10 mM EDTA; 50 mM BisTris pH 7.1, 37°C; both purified

binding: no binding (condition: with 10 mM EDTA)
B1: ScCdc31-6His (Saccharomyces cerevisiae centrin Cdc31) (protein, UniProt P06704 1-161)
chain: MSKNRSSLQSGPLNSELLEEQKQEIYEAFSLFDMNNDGFLDYHELKVAMKALGFELPKREILDLIDEYDSEGRHLMKYDDFYIVMGEKILKRDPLDEIKRAFQLFDDDHTGKISIKNLRRVAKELGETLTDEELRAMIEEFDLDGDGEINENEFIAICTDS
